Assay results from patent publication US20220354827A1 (priority 2019, published 2022).

Test system: wild-type (WT) mice

O=C1CN(/N=C/c2ccc(-c3ccc([N+](=O)[O-])cc3)o2)C(O)=N1 [dantrolene]
hippocampal-dependent memory (CFC) vs untreated controls (IN-DAN and SQ-DAN, 6 and 11 months of age): no significant differences
hippocampal-independent memory (FC-cued) (all ETG and LTG groups, both ages): no significant differences
